Data as given in publication doi:10.1101/2024.08.11.607506.

Molecular target: T1, SRSF5 (UniProt Q13243)
T1 sequence: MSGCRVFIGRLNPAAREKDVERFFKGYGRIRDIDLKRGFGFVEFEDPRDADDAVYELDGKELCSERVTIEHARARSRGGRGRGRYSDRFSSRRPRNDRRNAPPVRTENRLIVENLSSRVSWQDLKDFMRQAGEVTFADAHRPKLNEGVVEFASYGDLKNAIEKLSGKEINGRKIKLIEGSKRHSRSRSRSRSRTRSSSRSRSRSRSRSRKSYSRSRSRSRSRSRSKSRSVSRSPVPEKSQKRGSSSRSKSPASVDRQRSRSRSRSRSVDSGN
Assay: affinity purification with mass spectrometry

B1: PSPC1 (protein, UniProt Q8WXF1 1-523)
chain: MMLRGNLKQVRIEKNPARLRALESAVGESEPAAAAAMALALAGEPAPPAPAPPEDHPDEEMGFTIDIKSFLKPGEKTYTQRCRLFVGNLPTDITEEDFKRLFERYGEPSEVFINRDRGFGFIRLESRTLAEIAKAELDGTILKSRPLRIRFATHGAALTVKNLSPVVSNELLEQAFSQFGPVEKAVVVVDDRGRATGKGFVEFAAKPPARKALERCGDGAFLLTTTPRPVIVEPMEQFDDEDGLPEKLMQKTQQYHKEREQPPRFAQPGTFEFEYASRWKALDEMEKQQREQVDRNIREAKEKLEAEMEAARHEHQLMLMRQDLMRRQEELRRLEELRNQELQKRKQIQLRHEEEHRRREEEMIRHREQEELRRQQEGFKPNYMENREQEMRMGDMGPRGAINMGDAFSPAPAGNQGPPPMMGMNMNNRATIPGPPMGPGPAMGPEGAANMGTPMMPDNGAVHNDRFPQGPPSQMGSPMGSRTGSETPQAPMSGVGPVSGGPGGFGRGSQGGNFEGPNKRRRY
With B1 the binding was “no binding”.

These are yes or no findings as the source states them, for the method shown. In cells and extracts the contact can be indirect. A yes stands for co-enrichment or nearness to the bait. Other partners may have been found. A no says only that the protein was not detected with the bait.
